This is one part of the list. Further columns of the screen follow, without active or inactive calls. Most of these compounds were active or inconclusive in the main read-out, so they are no random draw. The note in brackets gives the kind of curve behind each potency; many fits are weak.

This assay can be described thus: qHTS Assay to Find Inhibitors of Chronic Active B-Cell Receptor Signaling. The conditions noted are these: ABC-DLBCL IkBa-CBG/CBR reporter, luminescence ratio (green luciferase fused to IkBa over red control in TMD8 lymphoma cells), 4 h. Put shortly:
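TMD8 ABC-DLBCL cells carrying doxycycline-inducible green luciferase fused to IkappaBalpha plus unfused red luciferase were exposed to compounds (up to 46 uM) for 4 hrs at 37C. Activity came from the overlap-corrected green/red luminescence ratio.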
In general terms: Quantitative high-throughput screening tests each substance at several concentrations.

Setting [1] is: measured here: CBR red luminescence, cell number.

Turning to `CCCn1nnc(NC(=O)c2ccc3ccccc3c2)n1`, under setting [1], the half-maximal activity concentration (AC50) is 20 µM [falling, single point]. As to `COc1ccc(-c2csc(-c3cccnc3)n2)cc1C`, the AC50 under setting [1] is 5.62 µM [rising, partial curve]. Same read-out and setting: as for `CSc1ccc(NC(=O)Nc2cccn(Cc3ccccc3F)c2=O)cc1`, the figure is 12.6 µM [rising, partial curve]; as for `COc1ccc(C(=O)O)nc1C`, 35.5 µM [falling, partial curve, poor fit]. Regarding `COC(=O)C1CCN(C(=O)c2oc3c(Cl)cc(C)cc3c2C)CC1`, the AC50 under setting [1] was 0.631 µM [rising, partial curve, poor fit].

Turning to `Cc1ccccc1CS(=O)(=O)c1ccc(C(=O)N2CCOCC2)cc1[N+](=O)[O-]`, the AC50 under setting [1] is 2.24 µM [falling, full curve]. Same read-out and setting: with `N/C(=N\OC(=O)Cc1ccccc1[N+](=O)[O-])c1ccncc1` the figure was 0.58 µM [rising, full curve, poor fit]; with `C1=C(c2ccccc2)CCN(c2nc3ccccc3n3cnnc23)C1`, 18.4 µM [falling, partial curve]. On the same count and under the same terms, with `CCCCN1CC(=O)N2[C@H]3c4cc(Cl)ccc4OC[C@@H]3[C@H](C(=O)OCC)[C@]2(C)C1=O` the figure was 11.6 µM [falling, partial curve, poor fit]; with `COc1ccc(-c2onc(C)c2-c2ccccc2)c(O)c1`, 29.1 µM [rising, single point]. The same measure, in the same setting: as for `COc1ccccc1C(=O)COC(=O)COc1cccc2c1OC(C)(C)C2`, the figure is 8.91 µM [rising, partial curve, poor fit].

For `Cc1ccccc1C(=O)NNC(=O)CCc1ccccc1`, the AC50 under setting [1] was 11.2 µM [falling, partial curve].

`COC(=O)c1ccc(OCC(=O)c2ccccc2)cc1`: the AC50 under setting [1] was 5.17 µM [falling, single point].

Regarding `CCc1ccc(OCC(=O)NCC(c2ccc(Cl)cc2)N2CCCCC2)cc1` (stereo not drawn), the AC50 under setting [1] was 17.8 µM [falling, single point]. On the same count and under the same terms, with `Cc1ccc2nc(SCC(=O)Nc3cccc([N+](=O)[O-])c3)[nH]c2c1` the figure was 25.1 µM [falling, single point]. On the same count and under the same terms, with `CCOC(=O)C1(CCOC)CCN(Cc2ccc(C3CCCCO3)s2)CC1` (stereo not drawn) the figure was 3.16 µM [rising, single point]; with `COc1ccc(-c2csc(N(CC(C)C)C(=O)c3ccco3)n2)cc1`, 10 µM [rising, partial curve, poor fit]; with `COc1ccc(C(=O)N2CCCC(c3nc(-c4cccs4)no3)C2)cc1` (stereo not drawn), 11.2 µM [rising, partial curve, poor fit]. Same read-out and setting: as for `Cc1ccc(NC(=O)COc2ccc3c(c2)OCO3)c(Cl)c1`, the figure is 20.6 µM [rising, single point]; as for `Cc1cc(C)c2c(=O)[nH]c(SCc3ccccc3C)nc2n1`, 4.47 µM [falling, full curve]. Consider `CC(=O)CC1=NC(C)(C)Cc2ccccc21`, for which the AC50 under setting [1] is 15.8 µM [falling, partial curve, poor fit]. Same read-out and setting: as for `Cc1cccc2nc(C(=O)Nc3cccc(C(=O)NC4CC4)c3)cn12`, the figure is 1.46 µM [falling, full curve]; as for `Cc1ccc(NC(=O)C(C)Sc2nnc3ccccn23)cc1` (stereo not drawn), 0.0116 µM [rising, full curve]; as for `COc1ccc(/C=C2\SC(=O)N(CCC(=O)N3CCCCC3)C2=O)cc1OC`, 20 µM [falling, single point]. Same read-out and setting: with `Cc1sc(NC(=O)c2cccnc2)nc1-c1ccccc1` the figure was 35.5 µM [falling, single point]; with `Fc1ccc(-c2nc3c(-c4ccccc4)cnn3cc2CCN2CCOCC2)cc1`, 7.94 µM [falling, partial curve, poor fit]; with `Cc1ccc(S(=O)(=O)NCCSC(C)(C)C)cc1`, 1.84 µM [rising, full curve, poor fit]. As for `CCOC(=O)c1cnc2ccccc2c1NCCO`, the AC50 by setting is: under setting [1], 3.98 µM [falling, full curve, poor fit]; (measured here: IkBa-CBG green luminescence) 11.2 µM [rising, partial curve, poor fit]. As to `CCCCCCSc1cc(-c2nc3ccc(C)cn3c2NCc2ccccc2)ccc1OC`, the AC50 under setting [1] is 18.4 µM [falling, single point]. Still for that read-out and setting: with `O=C(Nc1ccccc1)C1CC(=O)N(Cc2ccccc2)C1` (stereo not drawn) the figure was 35.5 µM [falling, single point]; with `O=C(CN1CCOCC1)N1N=C(c2cccs2)CC1c1cccs1` (stereo not drawn), 35.5 µM [rising, single point]; with `O=C(Nc1ccccc1)C(=O)c1cn(CC(=O)N2CCCCC2)c2ccccc12`, 0.461 µM [falling, full curve]. Consider `COc1ccc(S(=O)(=O)N(CC(=O)Nc2cccnc2)c2ccccc2OC)cc1`, for which, under setting [1], the AC50 is 2.59 µM [falling, partial curve, poor fit]. As for `COc1ccc(NC(=O)c2ccc(-n3nc(C)cc3C)cc2)cc1OC`, the half-maximal activity concentration (AC50) under setting [1] was 11.2 µM [falling, partial curve, poor fit].

With `CC(=O)NC(CC(=O)N(Cc1ccccc1)c1ccc(C)cc1)c1ccccc1` (stereo not drawn), the AC50 under setting [1] was 35.5 µM [falling, single point].

Regarding `CCCCNC(=O)C(C1CCCCC1)N(CCN(C)C)C(=O)CCCN1C(=O)NC(c2ccc(-c3ccccc3)cc2)C(C(=O)OCc2ccccc2)=C1C` (stereo not drawn), under setting [1], the AC50 is 16.4 µM [falling, single point]. Still for that read-out and setting: with `CN(C)CCN(C)Cc1ccccc1Sc1cccc2ccccc12` the figure was 18.4 µM [falling, single point].

In the case of `CCc1ccc(NC(=O)C2CCCN(S(=O)(=O)c3cccnc3)C2)cc1` (stereo not drawn), the AC50 under setting [1] is 20 µM [falling, single point]. The same measure, in the same setting: with `CCc1nc(NCCCN2CCOCC2)c2oc3ccccc3c2n1` the figure was 7.31 µM [falling, partial curve, poor fit]. Take `CC1CC1C(=O)OCC(=O)Nc1cccc(F)c1` (stereo not drawn): the AC50 under setting [1] was 1.84 µM [rising, partial curve, poor fit]. On the same count and under the same terms, as for `COc1ccc(NC(=S)Nc2ccccc2)c(OC)c1`, the figure is 25.1 µM [falling, single point]. On the same count and under the same terms, with `O=C(Nc1ccc2c(c1)OCCO2)c1cc(-n2cnnc2)ccc1Cl` the figure was 8.2 µM [falling, partial curve, poor fit].

The term AC50 denotes the midpoint of the concentration-response curve, whichever way the signal moves.
